Laboratory results reported in article doi:10.1101/533091.
Where a chain is given by its changes, count along the chain named. Results are given in words; binding and its absence hold for the method and conditions named. Binding can be weak; no strength is given. Tags and fused reporters may be left off the sequences shown. In cells and extracts the contact can be indirect.

B1: GST-SUMO (wild type) (protein, UniProt O97102 1-90)
chain: MSDEKKGGETEHINLKVLGQDNAVVQFKIKKHTPLRKLMNAYCDRAGLSMQVVRFRFDGQPINENDTPTSLEMEEGDTIEVYQQQTGGAP
B2: FLAG-tagged Piwi (protein, UniProt Q9VKM1 1-843)
chain: MADDQGRGRRRPLNEDDSSTSRGSGDGPRVKVFRGSSSGDPRADPRIEASRERRALEEAPRREGGPTERKPWGDQYDYLNTRPAELVSKKGTDGVPVMLQTNFFRLKTKPEWRIVHYHVEFEPSIENPRVRMGVLSNHANLLGSGYLFDGLQLFTTRKFEQEITVLSGKSKLDIEYKISIKFVGFISCAEPRFLQVLNLILRRSMKGLNLELVGRNLFDPRAKIEIREFKMELWPGYETSIRQHEKDILLGTEITHKVMRTETIYDIMRRCSHNPARHQDEVRVNVLDLIVLTDYNNRTYRINDVDFGQTPKSTFSCKGRDISFVEYYLTKYNIRIRDHNQPLLISKNRDKALKTNASELVVLIPELCRVTGLNAEMRSNFQLMRAMSSYTRMNPKQRTDRLRAFNHRLQNTPESVKVLRDWNMELDKNVTEVQGRIIGQQNIVFHNGKVPAGENADWQRHFRDQRMLTTPSDGLDRWAVIAPQRNSHELRTLLDSLYRAASGMGLRIRSPQEFIIYDDRTGTYVRAMDDCVRSDPKLILCLVPNDNAERYSSIKKRGYVDRAVPTQVVTLKTTKNRSLMSIATKIAIQLNCKLGYTPWMIELPLSGLMTIGFDIAKSTRDRKRAYGALIASMDLQQNSTYFSTVTECSAFDVLANTLWPMIAKALRQYQHEHRKLPSRIVFYRDGVSSGSLKQLFEFEVKDIIEKLKTEYARVQLSPPQLAYIVVTRSMNTRFFLNGQNPPPGTIVDDVITLPERYDFYLVSQQVRQGTVSPTSYNVLYSSMGLSPEKMQKLTYKMCHLYYNWSGTTRVPAVCQYAKKLATLVGTNLHSIPQNALEKKFYYL
B3: GST-SUMO (QFI>AAA) (protein, UniProt O97102 1-90)
chain: B1 chain with Q26A, F27A, I29A

Legend:
GFP-Piwi (Drosophila) = target: T1, GFP-Piwi (Drosophila) (UniProt Q9VKM1); experiment: co-IP
T1 sequence: B2 chain

GFP-Arx (Drosophila) = target: T2, GFP-Arx (Drosophila) (UniProt Q8SWX0); experiment: co-IP
T2 sequence: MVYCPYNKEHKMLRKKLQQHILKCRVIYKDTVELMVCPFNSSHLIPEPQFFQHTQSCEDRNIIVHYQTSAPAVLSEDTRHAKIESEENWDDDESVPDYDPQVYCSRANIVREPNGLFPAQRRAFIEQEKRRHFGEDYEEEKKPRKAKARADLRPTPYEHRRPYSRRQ

[1] = target: T3, FLAG-tagged Arx (Drosophila) (UniProt Q8SWX0); experiment: co-IP
T3 sequence: T2 sequence

[2] = target: T4, GST-SUMO (wild type) (Drosophila) (UniProt O97102); experiment: pull-down
T4 sequence: B1 chain

[3] = target: GFP-tagged truncated Wde including SIM 7 (aa1058-1310) (Drosophila); experiment: pull-down
[4] = target: GFP-tagged truncated Wde including predicted SIM-s 3 to 6 (aa385-655) (Drosophila); experiment: pull-down
[5] = target: GFP-Su(var)2-10 (D. melanogaster); experiment: co-IP

Molecule | binding [2] | binding [3] | binding [4] | further results
FLAG-Su(var)2-10 (D. melanogaster) | – | – | – | binding (GFP-Piwi (Drosophila)): binds; binding (GFP-Arx (Drosophila)): binds
GFP-Su(var)2-10 (D. melanogaster) | binds | – | – | binding [1]: binds
His-Su(var)2-10 (D. melanogaster) | binds | – | – | –
B1 | – | binds | binds | –
B2 | – | – | – | binding [5]: binds
B3 | – | no binding (tested: 2-3 μg GST-SUMO) | no binding (tested: 2-3 μg GST-SUMO) | –
